In PubChem BioAssay AID2685 (National Center for Advancing Translational Sciences (NCATS), 2010):
This is one part of the list. These are further read-outs of the screen, such as a control signal, another cell line or another target. No call is given for them. Compounds called inactive in the main read-out are mostly missing here. Potencies come from curve fits of mixed quality, noted in brackets.

Assay: qHTS Assay for Lipid Storage Modulators in Drosophila S3 Cells;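 as to cell number change: cells counted by Cell Tracker Red CMTPX staining in the red channel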
Conditions: BODIPY lipid droplet fluorescence, 18-24 h; for cell number change: measured here: cell count max response, cells fed with added oleic acid
Outline: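 Drosophila S3 cells loaded with oleic acid (400 uM, as added) and compounds at several concentrations; lipid droplets imaged by 488-nm laser-scanning cytometry, 500–530 nm intensity and object ratio to cell channel. Percent activity normalized to 20 uM Triacsin C.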

[1] = measured here: lipid fluorescence (Fed channel) AC50, cells fed with added oleic acid
[2] = measured here: cell number channel AC50, cells fed with added oleic acid

Compound | cell number change [%] | AC50 [1] | AC50 [2]
O=C(/C=C/c1cccs1)Nc1ccncc1 | 8.41 |  | 
CCN1CCN(C(=O)C2CCN(Cc3cc(Cl)ccc3O)CC2)CC1 | 0.581 | 6.51 µM [falling, full curve, poor fit] | 
COc1ccc([C@H]2CC(=O)C=C(c3ccc4[nH]ccc4c3)C2)cc1OC | -5.77 | 2.91 µM [rising, single point] | 
CCC(=O)N1CCN(c2nc(-c3ccccc3)c3c(c2C#N)CCCC3)CC1 | 3.47 | 0.0058 µM [rising, full curve, poor fit] | 
CCc1nnc(NC(=O)COc2ccc3c(c2)OCO3)s1 | 113 |  | 14.6 µM [rising, partial curve]
COC(=O)c1cc(NC(=O)Cn2c(=O)cnc3ccccc32)cc(C(=O)OC)c1 | 6.52 |  | 
CCN=c1scc(-c2ccco2)n1/N=C/c1ccc(OC)c(O)c1 | -72.5 | 20.6 µM [falling, single point] | 29.1 µM [falling, partial curve]
CCNC(=O)/C(C#N)=C/c1c(N2CCN(c3ccccc3)CC2)nc2ccccn2c1=O |  |  | 0.00461 µM [rising, full curve, poor fit]
CCOC(=O)c1c(C)[nH]c(C)c1C(=O)COC(=O)c1cc(OC)cc(OC)c1 | -38.8 |  | 
CC(C)(C)c1ccc(S(=O)(=O)NCCc2ccncc2)cc1 | -9.09 | 23.1 µM [rising, single point] | 
CCOC(=O)c1cnn(-c2cc(Oc3cccc(C)c3)ncn2)c1N | 19 | 4.11 µM [rising, full curve] | 1.46 µM [rising, partial curve, poor fit]
Cn1c(N)c(C(=O)Nc2cccc(Cl)c2)c(=O)n(C)c1=O | -17.6 | 0.731 µM [rising, single point] | 
O=C(NCC(c1ccco1)N1CCN(c2ccc(F)cc2)CC1)C(=O)NC1CCCC1 (centres undefined) | 3.85 | 29.1 µM [rising, single point] | 
CC(C)(C)NC(=O)C(c1ccncc1)N(C(=O)Cn1nnc(-c2cccs2)n1)C1CCCCC1 (centres undefined) |  | 0.651 µM [rising, single point] | 
COCCn1c(=NC(=O)c2ccc3c(c2)OCCO3)sc2cc(S(N)(=O)=O)ccc21 | -30.3 |  | 29.1 µM [falling, single point]
Cc1ccc(S(=O)(=O)NCCSc2nnc(N)s2)cc1 | 2.62 |  | 
COc1ccc(-c2sc(Nc3ccc(F)c(F)c3F)nc2CCC(=O)NN)cc1 | 11.9 | 0.58 µM [falling, single point] | 
COc1cc(OC)cc(C(=O)N[C@H](C(=O)OCC(=O)NC(=O)NC(C)(C)C)C(C)C)c1 |  | 0.103 µM [falling, single point] | 
OC(COc1ccccc1)CN1CCCC1 (centres undefined) | -32.2 | 23.1 µM [falling, single point] | 
O=C(COC(=O)c1cccc(S(=O)(=O)N2CCCCCC2)c1)Nc1ccccc1 | 25 |  | 1.16 µM [falling, partial curve, poor fit]
CCn1c(SCC(=O)N2CCCCC2C)nc2c1c(=O)n(C)c(=O)n2C (centres undefined) | -19.2 |  | 

Compound | cell number change [%] | AC50 [1] | AC50 [2]
COc1ccc(N2CCOCC2)c(NC(=O)c2ccco2)c1 | -19.7 |  | 
CCCC1C2C(=O)N(c3ccccc3OCC)C(=O)C2ON1c1ccccc1 (centres undefined) | 14.6 |  | 
Cc1ccc(OCCCCn2ccnc2)c(Cl)c1 | -16.8 | 0.461 µM [rising, full curve] | 
O=C1CC(c2ccco2)CC(O)=C1C=NCCN1CCN(C(=S)Nc2ccccc2)CC1 (centres undefined) | 11.5 | 0.00517 µM [rising, full curve, poor fit] | 0.00461 µM [rising, full curve, poor fit]
CCOC(=O)C1=C(C)OC(N)=C(C#N)C1c1ccc(O)c(OC)c1 (centres undefined) | -86.8 | 29.1 µM [rising, single point] | 14.6 µM [falling, partial curve]
CCC(C)(C)n1nnnc1CN1CCC(c2nc3ccc(C)cc3[nH]2)CC1 | 19.9 | 6.51 µM [rising, single point] | 
COc1ccccc1N1C(=O)S/C(=C\c2ccc(C)s2)C1=O | 81.1 |  | 29.1 µM [rising, single point]
CCOC(=O)c1c(C)c(C(=O)NCC2CCCO2)c(C)n1C (centres undefined) |  | 5.17 µM [falling, single point] | 
COc1cc2c(cc1OC)C(C)N(C(=O)c1cc3n(n1)C(C(F)(F)F)CC(c1ccco1)N3)CC2 (centres undefined) | -19.3 | 18.4 µM [falling, single point] | 
Cc1csc(=O)n1CC(=O)OC(C)C(=O)Nc1cccc(Cl)c1 (centres undefined) | -11 |  | 
COc1cc2c(cc1OC)C(c1ccccc1)CC2=O (centres undefined) |  | 6.51 µM [rising, single point] | 
Cc1ccccc1NC(=O)COC(=O)C1C2CC3OC(=O)C1C3C2 (centres undefined) |  | 29.1 µM [falling, single point] | 1.84 µM [rising, partial curve]
CCc1ccc(NC(=O)c2sc3nc4n(c(=O)c3c2C)CCC4)cc1 |  | 1.84 µM [falling, full curve] | 
O=C(CSc1ccc(-c2ccco2)nn1)NC1CCCCC1 | 32.8 | 4.11 µM [rising, full curve] | 
CN1C(=O)CC(c2ccccc2)C1=O (centres undefined) | -2.7 | 1.03 µM [rising, full curve, poor fit] | 
CC1CCN(CCCNC(=O)C2CCC(CNS(=O)(=O)c3ccccc3)CC2)CC1 (centres undefined) | -4.56 | 29.1 µM [rising, single point] | 
Cc1onc(-c2ccccc2)c1C(=O)Nc1sccc1C#N | 18.5 | 13 µM [falling, partial curve] | 
CCOC(=O)C1=C(c2ccccc2)NC(=O)N(C(C)=O)C1c1cccc([N+](=O)[O-])c1 (centres undefined) | 107 |  | 20.6 µM [rising, single point]
Nc1cnc(-c2ccccc2)nc1Cl | 20.2 | 16.4 µM [rising, single point] | 
Cc1cc(SCC(=O)Nc2c(C)n(C)n(-c3ccccc3)c2=O)nc2ccccc12 | 16.7 | 29.1 µM [rising, single point] | 
Cc1nnc(SCC(=O)N(C2CCCCC2)C2CCS(=O)(=O)C2)n1C (centres undefined) | 1.69 | 1.16 µM [rising, full curve, poor fit] | 

Complete entries as entered above:
CC1CCN(CCCNC(=O)C2CCC(CNS(=O)(=O)c3ccccc3)CC2)CC1 (centres undefined) is entered as cell number change [%]: -4.56; AC50 [1]: 29.1 µM [rising, single point]
COc1cc2c(cc1OC)C(C)N(C(=O)c1cc3n(n1)C(C(F)(F)F)CC(c1ccco1)N3)CC2 (centres undefined) is entered as cell number change [%]: -19.3; AC50 [1]: 18.4 µM [falling, single point]

(more compounds)

Compound | cell number change [%] | AC50 [1] | AC50 [2]
O=[N+]([O-])c1ccc(-c2nnc(-c3ccccc3)c(N3CCOCC3)n2)cc1 |  | 0.13 µM [rising, partial curve, poor fit] | 
Cc1cccc(C)c1NC(=O)CNC(=O)CCNC(=O)c1ccco1 | 4.69 | 0.731 µM [falling, full curve, poor fit] | 
O=C(CNC(=O)c1ccc(Br)cc1)NCC(=O)OCc1ccc(Cl)cc1 | -22.1 |  | 
CCOC(=O)N1CCN(C(=O)c2c[nH]c3ccc(S(=O)(=O)N(C)c4cccc(C)c4)cc3c2=O)CC1 | -3.98 |  | 
COc1ccccc1CN(C)C(=O)c1ccc2c(c1)NC(=O)CS2 | 73.9 | 2.31 µM [rising, partial curve] | 13 µM [rising, partial curve]
CCOC(=O)c1c(C)[nH]c(C(=O)CN2CC(C)OC(C)C2)c1C (centres undefined) | -27.6 | 14.6 µM [falling, partial curve, poor fit] | 
O=C(Nc1cccc(F)c1)c1ccc(Br)o1 | 14.2 | 29.1 µM [rising, single point] | 
CC(=O)Nc1cccc(OCC(=O)NS(=O)(=O)c2ccc(C)cc2)c1 | -16.9 | 9.2 µM [falling, partial curve, poor fit] | 
Cc1nc2cnccc2n1C | -92.4 | 18.4 µM [falling, partial curve] | 18.4 µM [falling, partial curve]
COc1ccc(NC2CCCN(C(=O)CN3CCOC3=O)C2)cc1OC (centres undefined) |  | 29.1 µM [rising, single point] | 
C=CCOc1ccc(/C=C(\C#N)C(=O)Nc2ccccn2)cc1 | -18.1 |  | 
O=C1CN(S(=O)(=O)c2ccc(F)cc2)c2ccccc2N1 | 4.53 | 29.1 µM [rising, single point] | 
CCc1nccn1CCC(=O)N1CCCC(Nc2ccc(C(C)C)cc2)C1 (centres undefined) | 28.7 |  | 
COC(=O)c1cnc2c(C(F)(F)F)cccc2c1OC | -2.64 | 29.1 µM [rising, single point] | 
Cc1ccccc1Nc1nc(N)nc(COC(=O)c2cccc(S(=O)(=O)NCc3ccccc3)c2)n1 | -50 | 3.26 µM [rising, full curve] | 2.59 µM [falling, full curve, poor fit]
Cc1cc2cc(CNS(=O)(=O)c3ccc4ccccc4c3)ccc2n1C | -12.4 | 29.1 µM [falling, single point] | 
O=c1[nH]c(CN2CCN(S(=O)(=O)/C=C/c3ccccc3)CC2)nc2ccccc12 |  | 1.46 µM [rising, partial curve] | 
CC(C)c1ccc(COc2ccc(C(=O)N3CCOCC3)cc2)cc1 | -50.2 | 18.4 µM [falling, partial curve] | 14.6 µM [falling, single point]
COc1cccc(CNc2ccc3[nH]c(=O)[nH]c3c2)c1OCc1ccccc1 | 4.21 | 0.291 µM [falling, single point] | 
Brc1cc(Br)c(Oc2cc(Br)c(Br)cc2Br)cc1Br | 18.4 | 0.326 µM [falling, partial curve] | 
CN1C(=O)Cc2cc(S(=O)(=O)N3CCOCC3)ccc21 | 65.3 | 4.61 µM [rising, single point] | 5.8 µM [rising, full curve]

Molecules shown so far with a nitro group on carbon:
Compound | cell number change [%] | AC50 [1] | AC50 [2]
CCOC(=O)C1=C(c2ccccc2)NC(=O)N(C(C)=O)C1c1cccc([N+](=O)[O-])c1 (centres undefined) | 107 |  | 20.6 µM [rising, single point]
O=[N+]([O-])c1ccc(-c2nnc(-c3ccccc3)c(N3CCOCC3)n2)cc1 |  | 0.13 µM [rising, partial curve, poor fit] | 
